Measurements published in patent publication EP2177496A1, “New analogs of polysphorin and uses thereof for treating or preventing malaria” (Assistance Publique - Hôpitaux de Paris, priority 2008, dated 2010).

Tests used:
P. falciparum = experiment: In vitro activity against erythrocytic stage of P. falciparum ([3H]-hypoxanthine incorporation); format: cell-based, chloroquine-sensitive (3D7w) clone of P. falciparum; conditions: selectivity index = ratio of TC50 to IC50
Method: After 48 hours, [^3H]-hypoxanthine (Amersham) was added to each well and then plates were incubated for 24 hours. Parasites were harvested, and incorporation of radioactivity was determined by liquid scintillation counting (Beckman LS1701, les Ulis, France). The counts-per-minute (cpm) was adjusted relative to controls to obtain percentages of inhibition. […] This estimation was obtained with IC50 estimator software. For the assay, the parasites were synchronized by D-sorbitol treatment.

P. yoelii = experiment: In vitro activity against hepatic stage of P. yoelii (sporozoite-infected HepG2/CD81 cells or rodent hepatocytes, liver-schizont count); format: cell-based, P. yoelii (265 BY strain); conditions: selectivity index = ratio of TC50 to IC50
Method: Activity against pre-erythrocytic stages was tested by in vitro assays with the human parasite P. falciparum (NF54 strain) and the rodent parasite P. yoelii (265 BY strain). The rodent parasite P. yoelii is produced in the insectarium of the INSERM Unit U511 and human parasite P. falciparum was obtained from collaboration with R. Sauerwein.
Sporozoites were obtained from infected salivary glands of Anopheles stephensi mosquitoes fed on continuous culture of P. falciparum (coll R. Sauerwein, Netherlands), or on P. yoelii parasitized mice (insectarium of the INSERM Unit U511). After aseptic dissection, salivary glands were homogenized in a glass grinder and diluted in culture medium or sterile phosphate-buffered saline (PBS).
Primary cultures of rodent or human hepatocytes were prepared from liver segments taken from mouse or from adult patients undergoing partial hepatectomy. Hepatocytes were isolated using the two-step enzymatic perfusion technique (Guguen-Guillouzo et al., 1982) and were further purified on a discontinuous Percoll gradient. […] Liver-schizonts were quantified by microscopic examination after fluorescent labeling using a primary mouse antibody directed against Plasmodium heat shock protein-70 (Renia et al., 1990) produced in INSERM unit 511 and a secondary goat anti-mouse antibody conjugated with fluorescein isothiocyanate (Sigma Aldrich).

| Structure (SMILES) | SI Erythrocytic stage P. falciparum (P. falciparum) | SI Hepatic stage (rodent) P. yoelii (P. yoelii) |
| --- | --- | --- |
| COc1cc(C)cc(OC)c1OC(C)C(O)c1ccc2c(c1)OC(F)(F)O2 (stereo not shown) [drawing 72] | 4.19 | 2.99 |
| COc1cc(C)cc(OC)c1OC(C)C(O)c1ccc2c(c1)OC(F)(F)O2 (stereo not shown) [drawing 73] | 3.99 | 9.55 |
